From patent US20250368638A1, “BICYCLIC INHIBITORS OF NICOTINAMIDE […], COMPOSITIONS AND USES THEREOF” (President and Fellows of Harvard College, priority 2021, published 2025)

Test system: Caco-2 cell monolayer
Assay: Assessment of Caco-2 cell monolayer integrity (TEER, Lucifer Yellow leakage)
Type: in vitro ADME
Details: Caco-2 monolayer; for LY Leakage A-B / LY Leakage B-A: Lucifer Yellow

| Compound | TEER A-B [W × cm^2] | TEER B-A [W × cm^2] | LY Leakage A-B [%] | LY Leakage B-A [%] |
| --- | --- | --- | --- | --- |
| COc1cc2nc(N3CCN(C(=O)c4ccco4)CC3)nc(N)c2cc1OC [Prazosin] | 434 | 427 | 0.30 | 0.29 |
| C[C@H]1O[C@@H](O[C@H]2[C@@H](O)C[C@H](O[C@H]3[C@@H](O)C[C@H](O[C@H]4CC[C@@]5(C)[C@H](CC[C@@H]6[C@@H]5C[C@@H](O)[C@]5(C)[C@@H](C7=CC(=O)OC7)CC[C@]65O)C4)O[C@@H]3C)O[C@@H]2C)C[C@H](O)[C@@H]1O [Digoxin] | 470 | 457 | 0.27 | 0.28 |
| CC(C)NCC(O)COc1cccc2ccccc12 (stereo not shown) [Propranolol] | 442 | 431 | 0.28 | 0.30 |
| C[C@@H]1Cc2cc(C(N)=O)cnc2N1 [Compound 11, (2R)-2-methyl-2,3-dihydro-1H-pyrrolo[2,3-b]pyridine-5-carboxamide] | 555 | 496 | 0.34 | 0.33 |
